The test relates to L1210 leukemia ip in BDF1 mice, survival T/C. In words: NCI In Vivo Anticancer Drug Screen. Data for tumor model L1210 Leukemia (intraperitoneal) in B6D2F1 (BDF1) mice. Particulars: T/C endpoint: mean survival time, higher T/C = longer survival.
[1] abbreviates: dose: 200.0 mg/kg/injection, schedule: Q04DX003 (ip), vehicle: saline.
Setting [2] is: dose: 400.0 mg/kg/injection, schedule: Q04DX003 (ip), vehicle: saline.
The mark [3] stands for this setting: dose: 300.0 mg/kg/injection, schedule: Q01DX001 (ip), vehicle: other.
The mark [4] stands for this setting: dose: 200.0 mg/kg/injection, schedule: Q01DX001 (ip), vehicle: saline.
Where [5] appears, read: dose: 400.0 mg/kg/injection, schedule: Q01DX001 (ip), vehicle: saline.
Where [6] appears, read: dose: 200.0 mg/kg/injection, schedule: Q01DX009 (ip), vehicle: saline with Tween-80.
Where [7] appears, read: dose: 100.0 mg/kg/injection, schedule: Q04DX002 (ip), vehicle: Klucel (hydroxypropylcellulose) (HPC).
Setting [8] is: dose: 200.0 mg/kg/injection, schedule: Q04DX002 (ip), vehicle: Klucel (hydroxypropylcellulose) (HPC).
Where [9] appears, read: dose: 400.0 mg/kg/injection, schedule: Q04DX002 (ip), vehicle: Klucel (hydroxypropylcellulose) (HPC).
[10] abbreviates: dose: 400.0 mg/kg/injection, schedule: Q04DX002 (ip), vehicle: saline with Tween-80.

The list does not hold the whole screen: it is rich in T/C values a quarter to a half above the control, in often repeated tests (any T/C) and in doses without a T/C. Further doses and runs are listed elsewhere. T/C gives the treated animals as a percentage of the vehicle group. Some doses have a count of surviving animals in place of a T/C: the source holds a T/C of zero for them, seemingly a mark for toxic or unscored doses. Some survivor counts are full or nearly so, which does not show that the dose was tolerated: the source hardly ever lists a survival T/C far under the control, and the zero likely stands for such cases as well. Survivors were counted at the toxicity check, usually on the fifth day, unless a day is given; later deaths do not show. Schedules are NCI's codes, taken here to give the interval after Q, in days (D) or hours (H), and the number of doses after X. Some entries hold several experiments; the values are given in rising order. Some schedule codes hold Z or #, which are not explained here. For survival time, the PubChem record calls one and a half times the control and up active, and a quarter to a half above the control has no call in these data; cut-offs in other NCI protocols can differ.

As to `Clc1ccc2c[n+]3ccccc3cc2c1`, the survivor count (dose: 8.0 mg/kg/injection, schedule: Q01DX Z (ip), vehicle: carboxymethylcellulose (CMC)) is 0 of 6; the survivor count (dose: 16.0 mg/kg/injection, schedule: Q01DX Z (ip), vehicle: carboxymethylcellulose (CMC)) is 0 of 6; the survivor count (dose: 32.0 mg/kg/injection, schedule: Q01DX Z (ip), vehicle: carboxymethylcellulose (CMC)) is recorded as 0 of 6; the survivor count (dose: 64.0 mg/kg/injection, schedule: Q01DX Z (ip), vehicle: carboxymethylcellulose (CMC)) is 0 of 6.
On to `CCCCCCCCCOCCOCCOCCN`, for which the survivor count is listed as 0 of 6 (dose: 50.0 mg/kg/injection, schedule: Q01DX009 (ip), vehicle: Klucel (hydroxypropylcellulose) (HPC)); 0 of 6 (dose: 100.0 mg/kg/injection, schedule: Q01DX009 (ip), vehicle: Klucel (hydroxypropylcellulose) (HPC)); 3 of 6 (dose: 100.0 mg/kg/injection, schedule: Q04DX003 (ip), vehicle: saline); 0 of 6 (dose: 200.0 mg/kg/injection, schedule: Q01DX009 (ip), vehicle: Klucel (hydroxypropylcellulose) (HPC)); 0 of 6 under setting [1]; 0 of 6 under setting [2].
With `CCSC1=NCCS1`, the survivor count under setting [3] is reported as 1 of 6.
As to `COc1cc2ccc3c(c2cc1OC)CN(C)CC3`, the survivor count was 0 of 6 under setting [1] and 0 of 6 under setting [2].
On to `CC1c2c(c3ccccc3n2C)CC[N+]1(C)C` (stereo not drawn), for which the survivor count is 0 of 3, 4 of 6, 5 of 6, 3 of 3 (dose: 100.0 mg/kg/injection, schedule: Q04DX002 (ip), vehicle: carboxymethylcellulose (CMC)); 6 of 6 (dose: 100.0 mg/kg/injection, schedule: Q04DX003 (ip), vehicle: carboxymethylcellulose (CMC)); 0 of 3 and 2 of 6 (dose: 200.0 mg/kg/injection, schedule: Q04DX002 (ip), vehicle: carboxymethylcellulose (CMC)); 0 of 6 (dose: 200.0 mg/kg/injection, schedule: Q04DX003 (ip), vehicle: carboxymethylcellulose (CMC)); 0 of 3 and 2 of 6 (dose: 400.0 mg/kg/injection, schedule: Q04DX002 (ip), vehicle: carboxymethylcellulose (CMC)); 0 of 6 (dose: 400.0 mg/kg/injection, schedule: Q04DX003 (ip), vehicle: carboxymethylcellulose (CMC)).
As to `CCCCCCCCCCCC[n+]1c(C)cc(N)c2ccccc21`, the survivor count reads like this: (dose: 9.5 mg/kg/injection, schedule: Q01DX001 (ip), vehicle: other) 6 of 6; (dose: 19.0 mg/kg/injection, schedule: Q01DX001 (ip), vehicle: other) 2 of 6; (dose: 38.0 mg/kg/injection, schedule: Q01DX001 (ip), vehicle: other) 0 of 6.
Turning to `[O-][n+]1ccccc1CCl`, the survivor count under setting [4] is 2 of 4 and the survivor count under setting [5] was 0 of 4.
Turning to `COc1cc(/C=N/NC(=O)CNC(=O)NCc2ccccc2)ccc1O`, the survivor count under setting [6] is 3 of 3.
In the case of `CCCCS(=O)(=O)OCCCCOS(=O)(=O)CCCC`, under “dose: 540.0 mg/kg/injection, schedule: Q01DX Z (ip), vehicle: saline”, the survivor count is 0 of 6.
In the case of `Cc1nccc2c(C(=O)O)c(C(=O)O)[nH]c12`, the survivor count by setting is: (dose: 100.0 mg/kg/injection, schedule: Q01DX001 (ip), vehicle: saline) 1 of 6; under setting [4], 1 of 6; under setting [5], 0 of 6.
In the case of `CCOC(=O)C(CC(C(=O)OCC)C(=O)OCC)C(=O)OCC`, the survivor count is given as 0 of 3 (dose: 50.0 mg/kg/injection, schedule: Q01DX009 (ip), vehicle: saline with Tween-80); 3 of 3 (dose: 100.0 mg/kg/injection, schedule: Q01DX009 (ip), vehicle: saline with Tween-80); 3 of 3 under setting [6].
Take `O=c1[nH]cnc2[nH]cc([N+](=O)[O-])c12`: the survivor count runs as follows: (dose: 50.0 mg/kg/injection, schedule: Q01DX001 (ip), vehicle: carboxymethylcellulose (CMC)) 4 of 4; (dose: 100.0 mg/kg/injection, schedule: Q01DX001 (ip), vehicle: carboxymethylcellulose (CMC)) 4 of 4.
Consider `Nc1nc2c(ncn2C2CC(CO)C(O)C2O)c(=O)[nH]1` (stereo not drawn), for which the survivor count is, setting by setting: (dose: 19.0 mg/kg/injection, schedule: Q01DX009 (ip), vehicle: other) 5 of 6; (dose: 38.0 mg/kg/injection, schedule: Q01DX009 (ip), vehicle: other) 4 of 5; (dose: 75.0 mg/kg/injection, schedule: Q04DX003 (ip), vehicle: other) 6 of 6; (dose: 150.0 mg/kg/injection, schedule: Q01DX001 (ip), vehicle: other) 6 of 6; under setting [3], 1 of 6.
Consider `CCCCCCCCCCC(=O)N1CCCCCC1`, for which the survivor count under setting [7] is recorded as 3 of 3, the survivor count under setting [8] is on record as 3 of 3 and the survivor count under setting [9] is 3 of 3.
For `O=[N+]([O-])C=C1CCCCC1`, under “dose: 400.0 mg/kg/injection, schedule: Q01DX001 (ip), vehicle: saline with Tween-80”, the survivor count is recorded as 1 of 6.
For `COc1ccc(C[n+]2cccc(NC(=O)COc3ccc(Cl)c(Cl)c3)c2)cc1`, the survivor count (dose: 200.0 mg/kg/injection, schedule: Q04DX003 (ip), vehicle: Klucel (hydroxypropylcellulose) (HPC)) was 2 of 6 and the survivor count (dose: 400.0 mg/kg/injection, schedule: Q04DX003 (ip), vehicle: Klucel (hydroxypropylcellulose) (HPC)) was 0 of 6.
For `CC(Br)C(=O)NC(Cc1ccccc1)C(=O)O` (stereo not drawn), the survivor count (dose: 100.0 mg/kg/injection, schedule: Q04DX003 (ip), vehicle: other) is listed as 6 of 6.
As for `O=C(C(=O)N1CC2OC2C1)N1CC2OC2C1` (stereo not drawn), under setting [10], the survivor count is 0 of 3.
With `CCCSC(CCc1cnc(N)nc1C)SCCC`, the survivor count is listed as 3 of 3 under setting [7] and 3 of 3 under setting [8].
In the case of `S=C(Nc1ccccn1)Nc1ccccn1`, for the setting “dose: 100.0 mg/kg/injection, schedule: Q04DX003 (ip), vehicle: Klucel (hydroxypropylcellulose) (HPC)”, the survivor count is 0 of 6.
As to `c1ccc2c(c1)CCCc1cn[nH]c1-2`, the survivor count under setting [5] is 0 of 4.
Consider `CCC(=O)NCC1(c2ccccc2)CCN(CC2COc3ccccc3O2)CC1` (stereo not drawn), for which the survivor count runs as follows: under setting [1], 0 of 6; under setting [2], 0 of 6.
For `CCCCCC(=O)Oc1c(C(C)CC)cc([N+](=O)[O-])cc1[N+](=O)[O-]` (stereo not drawn), the survivor count by setting is: (dose: 50.0 mg/kg/injection, schedule: Q04DX002 (ip), vehicle: saline with Tween-80) 2 of 3; (dose: 100.0 mg/kg/injection, schedule: Q04DX002 (ip), vehicle: saline with Tween-80) 0 of 3; (dose: 200.0 mg/kg/injection, schedule: Q04DX002 (ip), vehicle: saline with Tween-80) 0 of 3; under setting [10], 0 of 3.
In the case of `CCOC(=O)C(O)(O)C(C)C`, under setting [4], the T/C was 138 % of control.
Regarding `O=c1[nH]c(=O)c2ncsc2[nH]1`, the survivor count (dose: 400.0 mg/kg/injection, schedule: Q04DX003 (ip), vehicle: saline with Tween-80) was 0 of 6.
As to `ClCCCCOCC1CCCO1` (stereo not drawn), the survivor count (dose: 400.0 mg/kg/injection, schedule: Q01DX009 (ip), vehicle: saline with Tween-80) is 5 of 6.
As for `O=C1OCC/C1=C\N1CCCCC1`, the survivor count was 1 of 3 under setting [8] and 0 of 3 under setting [9].
Take `Cc1c(O)cc(O)cc1O`: the survivor count under setting [5] is on record as 2 of 6.

Values taken from PubChem BioAssay AID248 (DTP/NCI, 2004).
